# Inconclusive results, whose numbers are uncertain, are shown with a selection of clear calls. Potencies beside an inconclusive call are fits to weak or partial responses and may not hold up. Calls of active or inactive are those of the source. How the source made its calls: active means hit-call score of the fitted dose curve at least 0.9, where 1 is the maximum; inconclusive means response in the unintended direction; inactive means score below 0.9.
# Chains of the proteins cited; added tags and fusions are not shown. Lines headed by an entry give the natural chain unless they say otherwise; changes in a name come on top.
# UniProt P37231: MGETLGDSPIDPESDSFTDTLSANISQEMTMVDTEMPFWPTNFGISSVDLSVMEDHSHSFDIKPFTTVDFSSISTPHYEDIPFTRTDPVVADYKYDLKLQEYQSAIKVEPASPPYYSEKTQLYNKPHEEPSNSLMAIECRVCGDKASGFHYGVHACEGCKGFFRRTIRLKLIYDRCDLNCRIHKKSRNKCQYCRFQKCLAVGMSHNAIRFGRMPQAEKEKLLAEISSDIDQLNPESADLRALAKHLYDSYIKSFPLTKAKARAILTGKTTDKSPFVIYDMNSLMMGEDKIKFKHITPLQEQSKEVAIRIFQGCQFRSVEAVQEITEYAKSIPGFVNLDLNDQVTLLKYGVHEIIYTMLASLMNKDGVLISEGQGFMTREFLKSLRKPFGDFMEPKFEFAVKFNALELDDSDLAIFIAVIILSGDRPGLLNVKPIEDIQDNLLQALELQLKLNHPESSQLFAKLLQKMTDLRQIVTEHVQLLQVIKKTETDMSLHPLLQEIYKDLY
# UniProt P13631, whole entry, looked up: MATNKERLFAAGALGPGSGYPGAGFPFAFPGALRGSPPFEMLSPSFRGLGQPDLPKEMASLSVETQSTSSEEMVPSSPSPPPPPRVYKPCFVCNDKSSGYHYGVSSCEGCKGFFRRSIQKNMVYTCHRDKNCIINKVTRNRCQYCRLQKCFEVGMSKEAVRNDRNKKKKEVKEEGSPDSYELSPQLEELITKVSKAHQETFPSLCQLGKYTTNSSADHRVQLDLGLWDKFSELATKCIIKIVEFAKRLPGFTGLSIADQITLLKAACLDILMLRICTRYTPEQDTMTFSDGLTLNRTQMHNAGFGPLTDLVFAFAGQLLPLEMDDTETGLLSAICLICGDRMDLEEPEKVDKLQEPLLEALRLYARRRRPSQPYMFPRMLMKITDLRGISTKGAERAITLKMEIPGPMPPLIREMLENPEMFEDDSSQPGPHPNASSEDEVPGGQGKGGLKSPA
# UniProt Q92753: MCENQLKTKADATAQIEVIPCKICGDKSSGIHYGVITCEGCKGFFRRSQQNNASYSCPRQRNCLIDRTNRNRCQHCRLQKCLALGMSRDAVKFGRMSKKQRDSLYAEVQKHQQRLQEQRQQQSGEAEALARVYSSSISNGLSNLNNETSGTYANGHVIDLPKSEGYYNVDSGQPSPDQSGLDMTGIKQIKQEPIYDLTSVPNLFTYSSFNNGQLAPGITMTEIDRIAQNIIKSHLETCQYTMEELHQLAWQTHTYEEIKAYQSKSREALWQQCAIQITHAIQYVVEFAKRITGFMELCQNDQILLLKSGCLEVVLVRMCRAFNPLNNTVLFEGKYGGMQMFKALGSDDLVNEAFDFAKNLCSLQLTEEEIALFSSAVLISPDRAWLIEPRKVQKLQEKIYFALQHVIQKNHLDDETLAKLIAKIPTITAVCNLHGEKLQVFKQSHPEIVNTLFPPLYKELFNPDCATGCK
# UniProt P51449: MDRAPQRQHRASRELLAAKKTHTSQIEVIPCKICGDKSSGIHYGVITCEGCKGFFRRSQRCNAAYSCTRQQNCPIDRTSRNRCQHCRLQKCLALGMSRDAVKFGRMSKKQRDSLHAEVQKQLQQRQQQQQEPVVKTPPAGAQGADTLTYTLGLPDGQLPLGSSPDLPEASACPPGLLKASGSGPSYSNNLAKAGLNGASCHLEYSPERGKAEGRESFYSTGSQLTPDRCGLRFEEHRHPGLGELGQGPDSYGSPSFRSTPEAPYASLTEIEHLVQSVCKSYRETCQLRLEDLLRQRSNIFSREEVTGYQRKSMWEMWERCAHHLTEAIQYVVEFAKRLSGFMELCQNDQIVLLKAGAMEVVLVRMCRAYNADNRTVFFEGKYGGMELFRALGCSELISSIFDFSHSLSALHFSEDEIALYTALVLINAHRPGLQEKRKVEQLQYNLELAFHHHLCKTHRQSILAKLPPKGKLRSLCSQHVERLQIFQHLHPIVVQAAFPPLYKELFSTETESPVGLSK
# UniProt P28702: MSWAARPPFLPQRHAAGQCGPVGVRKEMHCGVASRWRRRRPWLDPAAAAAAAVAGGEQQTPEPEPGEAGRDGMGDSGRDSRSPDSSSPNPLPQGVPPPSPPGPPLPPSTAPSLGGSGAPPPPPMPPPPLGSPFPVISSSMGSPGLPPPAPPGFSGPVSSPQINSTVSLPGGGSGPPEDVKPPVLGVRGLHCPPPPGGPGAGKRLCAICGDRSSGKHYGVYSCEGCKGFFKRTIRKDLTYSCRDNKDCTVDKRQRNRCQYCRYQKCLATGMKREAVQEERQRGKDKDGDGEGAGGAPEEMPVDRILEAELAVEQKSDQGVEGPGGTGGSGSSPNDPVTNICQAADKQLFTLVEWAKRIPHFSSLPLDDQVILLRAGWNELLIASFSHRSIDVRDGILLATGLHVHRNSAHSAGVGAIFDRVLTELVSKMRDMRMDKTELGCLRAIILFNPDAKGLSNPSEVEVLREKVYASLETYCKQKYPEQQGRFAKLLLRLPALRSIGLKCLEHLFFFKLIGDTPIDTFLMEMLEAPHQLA
# UniProt P10827: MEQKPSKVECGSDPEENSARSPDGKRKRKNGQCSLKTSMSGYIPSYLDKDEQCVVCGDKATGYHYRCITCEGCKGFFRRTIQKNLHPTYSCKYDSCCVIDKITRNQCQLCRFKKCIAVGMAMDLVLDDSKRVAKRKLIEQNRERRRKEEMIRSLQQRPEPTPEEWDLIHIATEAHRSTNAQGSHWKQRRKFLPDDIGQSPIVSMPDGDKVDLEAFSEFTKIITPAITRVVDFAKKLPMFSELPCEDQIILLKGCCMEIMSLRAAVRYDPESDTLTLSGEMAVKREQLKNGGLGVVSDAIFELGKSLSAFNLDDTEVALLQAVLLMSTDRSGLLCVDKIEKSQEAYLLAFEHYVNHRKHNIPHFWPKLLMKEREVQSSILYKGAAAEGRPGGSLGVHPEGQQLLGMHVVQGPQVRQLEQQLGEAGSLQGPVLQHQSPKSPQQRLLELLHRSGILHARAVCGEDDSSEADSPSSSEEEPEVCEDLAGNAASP
# UniProt P11473: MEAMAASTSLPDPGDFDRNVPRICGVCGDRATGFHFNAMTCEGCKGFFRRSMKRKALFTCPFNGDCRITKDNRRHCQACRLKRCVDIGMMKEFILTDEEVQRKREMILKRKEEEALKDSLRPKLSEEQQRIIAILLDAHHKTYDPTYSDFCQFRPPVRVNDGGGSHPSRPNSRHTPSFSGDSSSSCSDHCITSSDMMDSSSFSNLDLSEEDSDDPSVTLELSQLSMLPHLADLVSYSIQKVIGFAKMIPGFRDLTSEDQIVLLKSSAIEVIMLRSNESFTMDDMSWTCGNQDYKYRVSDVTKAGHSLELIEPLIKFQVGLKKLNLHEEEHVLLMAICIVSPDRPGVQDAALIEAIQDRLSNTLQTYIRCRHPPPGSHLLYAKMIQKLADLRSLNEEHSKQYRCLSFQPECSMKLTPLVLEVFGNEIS
# UniProt P19793: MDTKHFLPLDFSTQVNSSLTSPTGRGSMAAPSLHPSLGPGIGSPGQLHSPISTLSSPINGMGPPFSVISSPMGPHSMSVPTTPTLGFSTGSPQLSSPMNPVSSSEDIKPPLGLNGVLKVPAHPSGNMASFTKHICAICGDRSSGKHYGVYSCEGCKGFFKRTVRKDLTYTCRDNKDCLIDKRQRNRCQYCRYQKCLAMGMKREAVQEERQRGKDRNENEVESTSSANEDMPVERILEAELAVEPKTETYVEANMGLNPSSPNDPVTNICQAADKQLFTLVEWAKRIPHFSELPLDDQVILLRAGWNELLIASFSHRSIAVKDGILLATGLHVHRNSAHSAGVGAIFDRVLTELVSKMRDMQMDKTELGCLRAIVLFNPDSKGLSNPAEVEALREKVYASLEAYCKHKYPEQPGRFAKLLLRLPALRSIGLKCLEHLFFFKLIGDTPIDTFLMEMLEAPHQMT
# Columns and labels:
# [1] = molecular target: Peroxisome proliferator-activated receptor gamma (Homo sapiens) (UniProt P37231); assay: ATG_PPARg_TRANS: Attagene TRANS-FACTORIAL HepG2 Assay for human Peroxisome Proliferator-activated Receptor-gamma (PPARg) (AID 2283007)
# Method in brief: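 Chimeric NR-Gal4 transactivation is measured in transiently transfected HepG2 cells by reporter mRNA induction at 24 h. Detection uses RT-PCR with fluorescent labelling and capillary electrophoresis; DMSO defines baseline.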
# [2] = molecular target: human Retinoic Acid Receptor gamma (RARg), RARG (gene 5916) (UniProt P13631); assay: ATG_RARg_TRANS: Attagene TRANS-FACTORIAL HepG2 Assay for human Retinoic Acid Receptor gamma (RARg) (AID 2283009);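 on AC50: AC50 is for reporter induction above DMSO meaning RARg activation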
# Method in brief: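 Readout: reporter transcript levels via RT-PCR, 6-FAM primer-extension labelling, HpaI digestion and capillary electrophoresis. Cells: HepG2 carrying transfected RARg-GAL4 chimera plus UAS reporter set. Dosing 24 h; DMSO negative control.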
# [3] = molecular target: human RAR-related Orphan Receptor beta (RORb), RORB (gene 6096) (UniProt Q92753); assay: ATG_RORb_TRANS: Attagene TRANS-FACTORIAL HepG2 Assay for human RAR-related Orphan Receptor beta (RORb) (AID 2283010);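 on AC50: potency for increased reporter mRNA meaning activation of RORb-Gal4 chimera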
# Method in brief: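 HepG2, transient MRTU transfection (GAL4-UAS reporters, exogenous NR-Gal4 chimeras); 24 h compound exposure; total RNA → RT-PCR → 6-FAM primer extension → HpaI digest → CE fluorescence. Positive direction vs DMSO baseline.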
# [4] = molecular target: human RAR-related Orphan Receptor gamma (RORg), RORC (gene 6097) (UniProt P51449); assay: ATG_RORg_TRANS: Attagene TRANS-FACTORIAL HepG2 Assay for human RAR-related Orphan Receptor gamma (RORg) (AID 2283011);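 on AC50: potency for induction of reporter transcripts above DMSO so activators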
# Method in brief: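 Readout: reporter transcript induction (RT-PCR, fluorescent primer extension, capillary electrophoresis) after 24 h compound exposure of transiently transfected HepG2 cells carrying a RORg-Gal4 chimera and GAL4-UAS reporters; DMSO served as baseline, with increasing signal fitted.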
# [5] = molecular target: human Retinoid X Receptor beta (RXRb), RXRB (gene 6257) (UniProt P28702); assay: ATG_RXRb_TRANS: Attagene TRANS-FACTORIAL HepG2 Assay for human Retinoid X Receptor beta (RXRb) (AID 2283013)
# Method in brief: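 Read-out: reporter mRNA induction via RT-PCR plus capillary electrophoresis fluorescence, analysed as signal increase relative to DMSO. Cells were human HepG2, transiently transfected with GAL4-UAS reporter constructs and chimeric receptor-Gal4 fusions, dosed for 24 h.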
# [6] = molecular target: human Thyroid Receptor alpha (THRa1), THRA (gene 7067) (UniProt P10827); assay: ATG_THRa1_TRANS: Attagene TRANS-FACTORIAL HepG2 Assay for human Thyroid Receptor alpha (THRa1) (AID 2283014)
# Method in brief: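 HepG2 cells transiently transfected with multiplexed GAL4-UAS reporter units for exogenous chimeric THRa1-Gal4; reporter mRNA measured 24 h after dosing by RT-PCR, 6-FAM labelling, HpaI digestion and capillary electrophoresis. Gain-of-signal fitted versus DMSO baseline.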
# [7] = molecular target: human Vitamin D Receptor (VDR), VDR (gene 7421) (UniProt P11473); assay: ATG_VDR_TRANS: Attagene TRANS-FACTORIAL HepG2 Assay for human Vitamin D Receptor (VDR) (AID 2283022)
# Method in brief: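 HepG2 cells were transiently transfected with multiple GAL4-UAS reporter units, so signal reflects exogenous chimeric receptor-Gal4 activity. After 24 h compound exposure, reporter mRNA was measured by RT-PCR, fluorescent labelling and capillary electrophoresis, fitted for gain of signal versus DMSO.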
# [8] = molecular target: Retinoic acid receptor RXR-alpha (Homo sapiens) (UniProt P19793); assay: ATG_RXRa_TRANS: Attagene TRANS-FACTORIAL HepG2 Assay for human Retinoid X Receptor alpha (RXRa) (AID 2283012)
# Method in brief: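 Read-out: fluorescent reporter-transcript fragments quantified by capillary electrophoresis after RT-PCR. Transiently transfected HepG2 cells carrying GAL4-UAS reporters and NR-GAL4 chimeras were exposed to chemical for 24 h; activity scored as increase over DMSO.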
smiles,measurement,setting,value
Nc1ccc(NCCO)c([N+](=O)[O-])c1,outcome,[1],inactive
same,outcome,[2],inactive
same,outcome,[3],inactive
same,AC50,[4],inconclusive: 100 µM
same,AC50,[5],active: 18.1 µM
same,outcome,[6],inactive
O=P(O)(O)OCCC(F)(F)C(F)(F)C(F)(F)C(F)(F)C(F)(F)C(F)(F)F,AC50,[1],inconclusive: 150 µM
same,AC50,[2],inconclusive: 150 µM
same,outcome,[3],inactive
same,outcome,[8],inactive
same,AC50,[5],inconclusive: 150 µM
same,outcome,[6],inactive
same,AC50,[7],inconclusive: 150 µM
C=CC(C)(CCC=C(C)C)OC(=O)C=Cc1ccccc1 (stereo unspecified),AC50,[1],active: 4.97 µM
same,AC50,[2],inconclusive: 43.7 µM
same,AC50,[3],inconclusive: 100 µM
same,AC50,[4],inconclusive: 100 µM
same,outcome,[6],inactive
OC[C@H]1O[C@@](CO)(O[C@H]2O[C@H](CO)[C@@H](O)[C@H](O)[C@H]2O)[C@@H](O)[C@@H]1O,outcome,[1],inactive
same,AC50,[2],inconclusive: 100 µM
same,outcome,[3],inactive
same,AC50,[4],inconclusive: 100 µM
same,AC50,[6],inconclusive: 100 µM
Cc1ccc(-c2ccccc2)cc1,AC50,[1],inconclusive: 3.75 µM
same,AC50,[2],inconclusive: 100 µM
same,outcome,[3],inactive
same,AC50,[4],inconclusive: 100 µM
same,AC50,[6],inconclusive: 100 µM
same,AC50,[7],inconclusive: 100 µM
NC(=O)C(F)(F)C(F)(F)C(F)(F)C(F)F,outcome,[1],inactive
same,AC50,[2],inconclusive: 150 µM
same,outcome,[3],inactive
same,AC50,[4],inconclusive: 150 µM
same,outcome,[5],inactive
same,AC50,[7],inconclusive: 150 µM
CCc1cccc(CC)c1NC(=O)C(=O)O,AC50,[1],inconclusive: 100 µM
same,AC50,[2],inconclusive: 100 µM
same,AC50,[3],inconclusive: 100 µM
same,AC50,[8],inconclusive: 5.39 µM
same,AC50,[5],inconclusive: 100 µM
CCCCC(C=O)CC (stereo unspecified),outcome,[1],inactive
same,AC50,[2],inconclusive: 188 µM
same,AC50,[3],inconclusive: 104 µM
same,AC50,[4],inconclusive: 104 µM
same,AC50,[6],inconclusive: 104 µM
same,AC50,[7],inconclusive: 104 µM
COC(=O)c1ccc(CNS(C)(=O)=O)cc1S(=O)(=O)NC(=O)Nc1nc(OC)cc(OC)n1,outcome,[1],inactive
same,AC50,[2],inconclusive: 50 µM
same,outcome,[3],inactive
same,AC50,[8],inconclusive: 50 µM
CC(C)(C)C1=CC(=O)C(C(C)(C)C)=CC1=O,AC50,[1],active: 50 µM
same,AC50,[2],inconclusive: 50 µM
same,AC50,[3],inconclusive: 50 µM
same,AC50,[4],active: 72 µM
same,AC50,[5],active: 13.7 µM
same,outcome,[6],inactive
CS(C)(=O)=O,AC50,[1],inconclusive: 27.7 µM
same,AC50,[2],inconclusive: 26.5 µM
same,AC50,[3],inconclusive: 100 µM
same,AC50,[4],inconclusive: 100 µM
same,AC50,[5],inconclusive: 100 µM
same,AC50,[6],inconclusive: 1.18 µM
same,AC50,[7],inconclusive: 100 µM
Cc1cccc(Nc2ccccc2C(=O)O)c1C,AC50,[1],active: 12.6 µM
same,AC50,[2],inconclusive: 5.39 µM
same,AC50,[3],inconclusive: 100 µM
same,AC50,[4],inconclusive: 100 µM
same,outcome,[6],inactive
C[C@]12CC[C@@H]3c4ccc(O)cc4CC[C@H]3[C@@H]1CC[C@@H]2OC(=O)CCC1CCCC1,AC50,[1],inconclusive: 184 µM
same,AC50,[2],inconclusive: 162 µM
same,AC50,[3],inconclusive: 26.4 µM
same,outcome,[4],inactive
same,AC50,[5],active: 169 µM
same,AC50,[6],inconclusive: 184 µM
same,AC50,[7],inconclusive: 100 µM

# 4 consecutive entries already listed:
smiles,measurement,setting,value
OC[C@H]1O[C@@](CO)(O[C@H]2O[C@H](CO)[C@@H](O)[C@H](O)[C@H]2O)[C@@H](O)[C@@H]1O,AC50,[2],inconclusive: 100 µM
same,outcome,[3],inactive
same,AC50,[4],inconclusive: 100 µM
same,AC50,[6],inconclusive: 100 µM
